No constants are given. Whether binding was seen depends on the method and setting. Binding seen in cells or lysates may run through a third protein. Here binding means that the protein was enriched with, or labelled near, the bait; the list need not be complete. No binding means not detected with the bait. Where a sequence is shown, tags or fusion partners need not be part of it.
T1: Mis12-FLAG (S. pombe) (UniProt Q9Y738)
T1 sequence: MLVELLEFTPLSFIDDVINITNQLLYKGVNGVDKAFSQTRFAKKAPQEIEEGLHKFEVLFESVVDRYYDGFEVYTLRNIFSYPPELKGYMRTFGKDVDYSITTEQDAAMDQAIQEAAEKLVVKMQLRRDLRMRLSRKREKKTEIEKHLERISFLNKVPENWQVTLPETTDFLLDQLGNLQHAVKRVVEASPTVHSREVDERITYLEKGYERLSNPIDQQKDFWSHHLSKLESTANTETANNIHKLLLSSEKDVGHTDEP

T2: Mis6-FLAG (S. pombe) (UniProt P87227)
T2 sequence: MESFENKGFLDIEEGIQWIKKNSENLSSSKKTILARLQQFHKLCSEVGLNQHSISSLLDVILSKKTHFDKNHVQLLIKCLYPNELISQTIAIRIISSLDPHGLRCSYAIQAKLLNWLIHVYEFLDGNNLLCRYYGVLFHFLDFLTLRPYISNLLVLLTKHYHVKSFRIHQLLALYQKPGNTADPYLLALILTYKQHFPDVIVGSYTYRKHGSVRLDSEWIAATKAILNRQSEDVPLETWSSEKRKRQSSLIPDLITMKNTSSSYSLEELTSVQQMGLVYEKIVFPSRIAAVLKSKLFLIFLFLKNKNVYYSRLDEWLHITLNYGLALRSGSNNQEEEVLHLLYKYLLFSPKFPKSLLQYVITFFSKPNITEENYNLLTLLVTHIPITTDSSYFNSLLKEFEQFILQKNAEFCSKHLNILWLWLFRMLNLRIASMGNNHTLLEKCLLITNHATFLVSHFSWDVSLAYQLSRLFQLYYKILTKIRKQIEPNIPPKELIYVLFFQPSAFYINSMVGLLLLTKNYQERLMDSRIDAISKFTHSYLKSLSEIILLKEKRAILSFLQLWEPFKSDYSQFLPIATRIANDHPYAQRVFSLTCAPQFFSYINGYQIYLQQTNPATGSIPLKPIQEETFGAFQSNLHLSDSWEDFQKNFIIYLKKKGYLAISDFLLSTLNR

T3: Mis17-FLAG (S. pombe) (UniProt O94643)
T3 sequence: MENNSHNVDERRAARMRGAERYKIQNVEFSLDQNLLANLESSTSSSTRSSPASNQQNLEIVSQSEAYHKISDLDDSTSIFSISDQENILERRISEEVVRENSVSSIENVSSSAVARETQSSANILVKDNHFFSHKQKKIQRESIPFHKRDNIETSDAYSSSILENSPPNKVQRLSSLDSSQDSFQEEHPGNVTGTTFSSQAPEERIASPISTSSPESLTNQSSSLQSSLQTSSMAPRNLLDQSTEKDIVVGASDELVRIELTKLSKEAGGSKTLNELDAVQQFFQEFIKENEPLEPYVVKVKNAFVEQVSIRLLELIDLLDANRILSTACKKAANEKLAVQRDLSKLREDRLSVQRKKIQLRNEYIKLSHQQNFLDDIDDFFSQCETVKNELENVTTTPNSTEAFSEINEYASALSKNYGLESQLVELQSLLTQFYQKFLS

B1: Fta3 (protein, UniProt O94261 1-220)
chain: MDNNDQISNLCLGALQLLADQPISVISNEPSEEQRNEHVLKKWENNVLRHWKILFSLFMQTCGDSVQGNAAFSILNFMTTNSLVGQLYQRLYDESNSLGFISSPLNETEHLSEENLKIESSITFTSEEIEKEKENIKSVLLPSVQSISSSLELYASKESDYRSSIEGVLADLKLARARWEIVRNVTQILLLESGISFLENKKLAYIMDLCGDREDNYSSY
B2: Fta4 (protein, UniProt O94716 1-233)
chain: MDIYEHKKSFMERQIRLLNRPMRPPKDWKLPLKSGQLSESVVETVFQRLQLRIQKHAKLNYSHQATQHVAAQIRKLYEQNSAIEDITFLNPLFYGEIDLSNLDSVKSLPHPWPFQKESRPVEKDEEQEKFNRLTGELLGLLTTLSELEQERSELEQIEKMLEPFEDGPSSIHTNMWKKNPELISTLNSTNTMVAKINSLLRGVSFPSLNNDNQEASLEDEIRSQLFEKTISDD
B3: Fta6 (protein, UniProt Q9UTP3 1-59)
chain: MEDKYILLSAVETFKSRLEELLMQSAKVQKQTMLRKELASSMNDMASTVQEALNKKKSS
B4: Prp19 (protein, UniProt O14011 1-488)
chain: MFCSISGETPKEPVISRVSGNVYEKRLIEQVIRETSKDPVTQQECTLEDLVPVKVPDFVRPRPPSATSLPALLSLFQEEWDSVALEQFELRRNLTETKQELSTALYSLDAALRVISRLTKERDEAREALAKFSDNIGTVSSKTIEVQEVEMGESDDQLKTSLRSTVEKTFQELSSKRKRTKLQPKWATDDAVSQLLQATPSTILENLETESTTSFFPSPENSSFVLCLHKDELLCLDIQSNSTLKIFEGSALACCWLTSSKIAVATADAISIFEFPVSSSGLQSVGEPTSSIPIDEKVNFLQAHPSGEYLLAASNEKCYIFSLKSQVYNITVAQHITSLAVHPDGNLFVAGLENGELRFFETSSGNELTKFGPHSSPVKTLQFGENGYWLVVTTNDDSDIFIWDLRKSELVQKIPLQTKVAAVSLDITSQLLVSSDGETLYVHIYVKSSKSWRCMSQTHVSSISNLVWLNELHQLLFSTSNGAILRLG
B5: Ndc80 (protein, UniProt Q10198 1-624)
chain: MQDSSSYARRYSQAPSSSNLRTTTFGFNGLGTSRTSLAPQRTLVNARQSIDPDGLSSRVLTPTMRPSLAPNTRRSSVRVSNASFISQTPNITSIKDPRPLSDRRYQQECATQVVNYLLESGFSQPLGLNNRFMPSTREFAAIFKHLYNKLDPNFRFGARYEEDVTTCLKALNYPFLDSISRSRLVAIGSPHVWPAILGMLHWVVSLIQCTEKAVAMVYTVEQNSLDDHLVDKVLFDYLVRTYHLYLDESPEESEPEKELKATFNQQNQDLYNQTEALKSTNEELINQIKSAEELDSAIQVLEERYRTMQRDEVKFQSAMSGMKSKMESRTNLMKQLQVNIEEKESQLQLLKEKRDSLKYQVENQDISISEFEKMVSEREQLDRNLNMIGSKISELRKEVFDTDLLIQASIDSLEKKVQKFNSLAYRIGIVPIAAIRSANNDFELEINPEGPNYINLDLKNKVRPFINEVRRSITLEFHEEQNKSLKLQEHVDTVNDLIAELQDELRGIESRLTSVLSECNMLRETASEEKNAFDAESDKLERELQQLKLSSHNSMLQLDQRIQSINIEADQIAHACMEYKNNIYKEVAFVLGEIIHFKLHVQDSLEDLKMDYQKELDDLSRSEL

Target: T1, Mis12-FLAG (S. pombe)
Test: affinity purification with mass spectrometry; anti-FLAG immunoprecipitation from extracts of S. pombe strains expressing Mis17-, Mis6- or Mis12-FLAG under the native promoter; extraction buffer 25 mM HEPES-KOH pH 7.5, 200 mM NaCl, 10% glycerol, 0.1% NP-40, 1 mM PMSF; 4-12% SDS-PAGE, gel slices, in-gel trypsin digestion, LC/MS/MS

B1 was tested. Which binding did it give?
The binding was “no binding”.

Which binding does the source give for B2 here?
Its binding is “no binding”.

Which binding does the source give for B3 here?
Its binding is “no binding”.

B4 was tested. Which binding did it give?
The binding was “no binding”.

With B5 as the binder, how does the binding read?
The binding was “binds”.

Target: T2, Mis6-FLAG (S. pombe)
Test: as above

Which binding does the source give for B1 here?
The binding was “binds”.

With B2 as the binder, how does the binding read?
Its binding is “binds”.

B3 was tested. Which binding did it give?
The binding was “binds”.

How did the binding turn out when B4 was run?
The binding was “binds”.

For B5, which binding is on record?
The binding was “no binding”.

Target: T3, Mis17-FLAG (S. pombe)
Test: as above

How did the binding turn out when B1 was run?
Its binding is “binds”.

How did the binding turn out when B2 was run?
Its binding is “binds”.

With B3 as the binder, how does the binding read?
Its binding is “binds”.

With B4 as the binder, how does the binding read?
Its binding is “binds”.

How did the binding turn out when B5 was run?
The binding was “no binding”.
